No constants are given. Whether binding was seen depends on the method and setting. For part of these data: Binding seen in cells or lysates may run through a third protein. Some binding calls cover weakened binding; strength is not graded here. Where a sequence is shown, tags or fusion partners need not be part of it.

Protein sequences, listed by entry. Tags and fused reporters are not part of them.
UniProt Q15910: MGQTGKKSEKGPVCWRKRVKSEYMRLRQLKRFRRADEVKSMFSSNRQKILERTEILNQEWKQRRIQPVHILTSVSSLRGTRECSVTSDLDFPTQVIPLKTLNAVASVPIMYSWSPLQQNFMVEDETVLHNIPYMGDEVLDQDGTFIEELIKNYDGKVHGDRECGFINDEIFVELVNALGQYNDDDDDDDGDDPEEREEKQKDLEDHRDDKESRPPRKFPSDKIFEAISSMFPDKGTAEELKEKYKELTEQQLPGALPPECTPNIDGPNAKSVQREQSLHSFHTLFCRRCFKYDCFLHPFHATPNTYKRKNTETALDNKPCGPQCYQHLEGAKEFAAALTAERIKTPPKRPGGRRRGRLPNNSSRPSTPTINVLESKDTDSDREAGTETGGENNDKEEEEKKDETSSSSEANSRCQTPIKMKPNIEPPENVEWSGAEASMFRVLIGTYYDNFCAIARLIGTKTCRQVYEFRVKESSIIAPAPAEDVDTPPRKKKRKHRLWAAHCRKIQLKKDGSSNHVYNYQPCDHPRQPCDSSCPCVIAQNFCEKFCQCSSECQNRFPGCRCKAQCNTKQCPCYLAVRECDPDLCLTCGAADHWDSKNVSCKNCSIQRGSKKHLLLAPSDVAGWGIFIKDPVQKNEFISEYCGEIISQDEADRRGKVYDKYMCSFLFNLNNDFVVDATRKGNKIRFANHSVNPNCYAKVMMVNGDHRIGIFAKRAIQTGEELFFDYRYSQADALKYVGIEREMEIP
UniProt Q09028: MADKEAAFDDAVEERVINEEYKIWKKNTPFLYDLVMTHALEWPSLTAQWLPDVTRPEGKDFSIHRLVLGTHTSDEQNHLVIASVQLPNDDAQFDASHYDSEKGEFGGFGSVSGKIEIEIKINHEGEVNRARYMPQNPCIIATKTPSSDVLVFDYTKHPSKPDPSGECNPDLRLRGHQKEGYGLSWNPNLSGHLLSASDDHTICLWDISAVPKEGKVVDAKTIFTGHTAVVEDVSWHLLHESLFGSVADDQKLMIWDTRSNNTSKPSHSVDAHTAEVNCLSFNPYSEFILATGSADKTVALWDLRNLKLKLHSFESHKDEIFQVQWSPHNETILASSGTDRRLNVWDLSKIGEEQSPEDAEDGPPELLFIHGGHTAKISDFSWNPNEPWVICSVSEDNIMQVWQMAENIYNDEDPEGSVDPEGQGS
UniProt O15054: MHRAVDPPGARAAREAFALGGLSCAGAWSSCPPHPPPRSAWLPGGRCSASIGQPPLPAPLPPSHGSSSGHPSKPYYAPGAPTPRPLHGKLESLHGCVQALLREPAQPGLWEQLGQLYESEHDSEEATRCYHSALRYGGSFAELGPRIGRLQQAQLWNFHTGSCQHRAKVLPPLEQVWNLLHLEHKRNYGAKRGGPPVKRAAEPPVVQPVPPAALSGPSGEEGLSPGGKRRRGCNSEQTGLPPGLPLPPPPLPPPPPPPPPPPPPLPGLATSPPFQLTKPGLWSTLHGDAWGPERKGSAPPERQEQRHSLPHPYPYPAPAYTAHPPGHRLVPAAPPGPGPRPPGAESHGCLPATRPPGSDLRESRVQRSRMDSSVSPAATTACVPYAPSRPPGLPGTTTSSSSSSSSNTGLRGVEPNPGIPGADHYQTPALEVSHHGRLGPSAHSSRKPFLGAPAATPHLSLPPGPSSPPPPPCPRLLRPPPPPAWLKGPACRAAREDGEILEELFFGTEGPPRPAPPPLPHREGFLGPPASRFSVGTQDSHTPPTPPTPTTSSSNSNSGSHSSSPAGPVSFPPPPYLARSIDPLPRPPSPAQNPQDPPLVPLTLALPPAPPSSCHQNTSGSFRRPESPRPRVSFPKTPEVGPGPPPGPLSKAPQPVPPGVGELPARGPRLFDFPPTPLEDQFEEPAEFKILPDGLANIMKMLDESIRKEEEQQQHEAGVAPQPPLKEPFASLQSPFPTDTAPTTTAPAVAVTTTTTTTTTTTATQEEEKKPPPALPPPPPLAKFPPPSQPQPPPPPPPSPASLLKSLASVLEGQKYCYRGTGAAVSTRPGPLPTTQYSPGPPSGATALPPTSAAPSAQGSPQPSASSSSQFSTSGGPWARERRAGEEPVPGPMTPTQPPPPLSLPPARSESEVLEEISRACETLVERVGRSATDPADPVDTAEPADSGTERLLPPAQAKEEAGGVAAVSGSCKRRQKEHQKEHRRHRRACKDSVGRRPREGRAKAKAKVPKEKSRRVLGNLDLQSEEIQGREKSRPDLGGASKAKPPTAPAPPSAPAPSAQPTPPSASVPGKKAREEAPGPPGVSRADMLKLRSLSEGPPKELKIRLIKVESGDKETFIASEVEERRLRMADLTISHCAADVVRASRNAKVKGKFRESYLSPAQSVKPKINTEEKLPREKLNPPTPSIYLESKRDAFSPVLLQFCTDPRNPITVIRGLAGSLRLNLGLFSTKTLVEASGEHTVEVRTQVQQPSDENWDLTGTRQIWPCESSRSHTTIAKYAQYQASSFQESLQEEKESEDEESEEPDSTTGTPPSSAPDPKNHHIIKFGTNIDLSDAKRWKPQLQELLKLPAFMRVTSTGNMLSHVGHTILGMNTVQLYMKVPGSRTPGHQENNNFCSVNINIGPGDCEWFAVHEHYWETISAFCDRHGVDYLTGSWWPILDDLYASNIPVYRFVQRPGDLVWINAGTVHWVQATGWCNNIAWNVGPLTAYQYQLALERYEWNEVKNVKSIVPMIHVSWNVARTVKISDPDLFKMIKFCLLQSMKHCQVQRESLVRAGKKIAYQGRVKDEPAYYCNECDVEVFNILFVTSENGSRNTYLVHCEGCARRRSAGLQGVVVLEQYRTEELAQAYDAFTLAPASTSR

Assay [1] addresses T1, GST-tagged TSPYL2 (testis-specific protein, Y-encoded-like 2) (UniProt Q9H2G4).
T1 sequence: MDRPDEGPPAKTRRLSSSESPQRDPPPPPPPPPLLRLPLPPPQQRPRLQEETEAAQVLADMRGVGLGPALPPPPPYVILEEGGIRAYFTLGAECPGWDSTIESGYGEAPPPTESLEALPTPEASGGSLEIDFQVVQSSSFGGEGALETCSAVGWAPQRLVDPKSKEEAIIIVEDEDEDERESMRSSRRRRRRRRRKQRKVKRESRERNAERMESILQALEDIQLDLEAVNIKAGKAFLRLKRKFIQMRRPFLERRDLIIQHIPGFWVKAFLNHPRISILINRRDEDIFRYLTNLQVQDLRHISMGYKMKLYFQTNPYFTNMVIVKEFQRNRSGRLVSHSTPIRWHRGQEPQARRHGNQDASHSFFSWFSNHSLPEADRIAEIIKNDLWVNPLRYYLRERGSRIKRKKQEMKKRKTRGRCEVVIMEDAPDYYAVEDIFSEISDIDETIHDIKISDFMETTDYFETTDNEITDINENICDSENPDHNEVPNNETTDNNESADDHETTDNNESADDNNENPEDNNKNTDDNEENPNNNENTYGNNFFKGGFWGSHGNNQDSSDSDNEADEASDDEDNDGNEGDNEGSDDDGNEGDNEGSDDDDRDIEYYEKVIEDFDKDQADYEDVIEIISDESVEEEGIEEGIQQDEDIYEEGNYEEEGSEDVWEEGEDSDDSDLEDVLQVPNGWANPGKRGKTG
Kind of assay: pull-down; pull-down assay using HEK293 cells; data not shown; only the target purified.

The target of assay [2] is T1, GST-tagged TSPYL2 (testis-specific protein, Y-encoded-like 2). Description: pull-down; GST-TSPYL2 on Glutathione Sepharose 4B beads; 150 μg nuclear lysate of HEK293 cells (non-transfected, Flag-UTX- or Flag-JMJD3-transfected); 3 h at 4 °C with rotation; washed four times with IP buffer; western blot; only the target purified.
Assay [3] has as its target EZH2 of the bought EZH2 complex (EZH2, EED, SUZ12, RbAp48, and AEBP2) (UniProt Q15910). Description: far-Western, overlay or dot blot; EZH2 complex (0.2 μg per well) separated on a 7.5% polyacrylamide gel and transferred to nitrocellulose; strips incubated with 2-μg GST-TSPYL2 or 0.6-μg GST in 5-ml TBST with 3% BSA overnight at 4 °C; probed by GST antibody; parallel strip probed with anti-EZH2; both purified.

With RbAp48 (from UniProt Q09028 1-425), in assay [1], the binding entry is recorded as “binds weakly”.

As to “Flag-JMJD3 (from UniProt O15054 1-1643) (enzyme)”, in assay [2], the binding result is “binds weakly”.

B1: GST-tagged TSPYL2 (testis-specific protein, Y-encoded-like 2) (protein, UniProt Q9H2G4 1-693)
chain: MDRPDEGPPAKTRRLSSSESPQRDPPPPPPPPPLLRLPLPPPQQRPRLQEETEAAQVLADMRGVGLGPALPPPPPYVILEEGGIRAYFTLGAECPGWDSTIESGYGEAPPPTESLEALPTPEASGGSLEIDFQVVQSSSFGGEGALETCSAVGWAPQRLVDPKSKEEAIIIVEDEDEDERESMRSSRRRRRRRRRKQRKVKRESRERNAERMESILQALEDIQLDLEAVNIKAGKAFLRLKRKFIQMRRPFLERRDLIIQHIPGFWVKAFLNHPRISILINRRDEDIFRYLTNLQVQDLRHISMGYKMKLYFQTNPYFTNMVIVKEFQRNRSGRLVSHSTPIRWHRGQEPQARRHGNQDASHSFFSWFSNHSLPEADRIAEIIKNDLWVNPLRYYLRERGSRIKRKKQEMKKRKTRGRCEVVIMEDAPDYYAVEDIFSEISDIDETIHDIKISDFMETTDYFETTDNEITDINENICDSENPDHNEVPNNETTDNNESADDHETTDNNESADDNNENPEDNNKNTDDNEENPNNNENTYGNNFFKGGFWGSHGNNQDSSDSDNEADEASDDEDNDGNEGDNEGSDDDGNEGDNEGSDDDDRDIEYYEKVIEDFDKDQADYEDVIEIISDESVEEEGIEEGIQQDEDIYEEGNYEEEGSEDVWEEGEDSDDSDLEDVLQVPNGWANPGKRGKTG
Regarding B1, in assay [3], the binding entry was “binds”.

(Values after PMC6459796.)
